Assay results published in patent publication US20030215913A1.
No constants are given. Whether binding was seen depends on the method and setting. Some binding calls cover weakened binding; strength is not graded here.

Chains of the proteins cited; added tags and fusions are not shown. Residues count along the entry.
UniProt P01137, residues 279-390: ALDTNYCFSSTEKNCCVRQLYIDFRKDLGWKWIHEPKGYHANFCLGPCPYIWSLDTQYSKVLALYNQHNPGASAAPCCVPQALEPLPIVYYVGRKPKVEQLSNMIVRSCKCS

Key:
Experiment in all cases: BIAcore 2000 SPR, LP226 amine-coupled to CM5 chip, ligand injected
[1] = molecular target: T1, TGF-beta 2 (UniProt P61812)
T1 sequence (looked up): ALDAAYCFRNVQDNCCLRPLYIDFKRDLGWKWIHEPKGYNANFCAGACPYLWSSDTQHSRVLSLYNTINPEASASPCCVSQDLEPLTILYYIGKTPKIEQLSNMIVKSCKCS

[2] = molecular target: T2, BMP-4 (UniProt P12644)
T2 sequence (looked up): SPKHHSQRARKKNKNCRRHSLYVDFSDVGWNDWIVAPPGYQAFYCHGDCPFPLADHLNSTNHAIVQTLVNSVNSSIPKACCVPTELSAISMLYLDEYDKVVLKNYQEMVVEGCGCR

[3] = molecular target: TGF-beta 1 (UniProt P01137)

Measured: binding

B1: LP226 (protein)
chain: RARPDMFCLFHGKRYSPGESWHPYLEPQGLMYCLRCTCSEGAHVSCYRLHCPPVHCPQPVTEPQQCCPKCVEPHTPSGLRAPPKSCQHNGTMYQHGEIFSAHELFPSRLPNQCVLCSCTEGQIYCGLTTCPEPGCPAPLPLPDSCCQACKDEASEQSDEEDSVQSLHGVRHPQDPCSSDAGRKRGPGTPAPTGLSAPLSFIPRHFRPKGAGSTTVKIVLKEKHKKACVHGGKTYSHGEVWHPAFRAFGPLPCILCTCEDGRQDCQRVTCPTEYPCRHPEKVAGKCCKICPEDKADPGHSEISSTRCPKAPGRVLVHTSVSPSPDNLRRFALEHEASDLVEIYLWKLVKGIFHLTQIKKVRKQDFQKEAQHFRLLAGPHEGHWNVFLAQTLELKVTASPDKVTKT
binds: [1] | [2] | [3]
